Results: the supplement of paper PMC10849652
This is one part of the list. Residues, ends and D or L forms follow the SMILES beside them. *: point of attachment. Cbz = O=C(OCc1ccccc1)*

The chains behind the UniProt entries cited, without tags or fusion partners. Where a name states a change or a piece, a line headed by the entry shows the natural chain unless it says otherwise.
UniProt Q08495: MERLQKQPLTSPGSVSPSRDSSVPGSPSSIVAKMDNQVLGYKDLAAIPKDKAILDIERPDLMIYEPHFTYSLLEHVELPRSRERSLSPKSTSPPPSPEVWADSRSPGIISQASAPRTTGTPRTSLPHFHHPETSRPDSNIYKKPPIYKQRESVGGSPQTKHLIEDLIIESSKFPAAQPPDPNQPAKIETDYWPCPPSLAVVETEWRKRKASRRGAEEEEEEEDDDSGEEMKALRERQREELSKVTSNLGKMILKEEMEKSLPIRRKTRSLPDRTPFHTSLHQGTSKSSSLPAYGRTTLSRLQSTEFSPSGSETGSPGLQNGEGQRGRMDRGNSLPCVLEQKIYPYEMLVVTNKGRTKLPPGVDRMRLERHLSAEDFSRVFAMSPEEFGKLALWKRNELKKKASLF
UniProt Q96GE9: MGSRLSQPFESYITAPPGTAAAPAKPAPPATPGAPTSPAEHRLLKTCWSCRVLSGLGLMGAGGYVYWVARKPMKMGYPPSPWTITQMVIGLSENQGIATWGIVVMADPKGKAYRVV
UniProt Q9NVR5: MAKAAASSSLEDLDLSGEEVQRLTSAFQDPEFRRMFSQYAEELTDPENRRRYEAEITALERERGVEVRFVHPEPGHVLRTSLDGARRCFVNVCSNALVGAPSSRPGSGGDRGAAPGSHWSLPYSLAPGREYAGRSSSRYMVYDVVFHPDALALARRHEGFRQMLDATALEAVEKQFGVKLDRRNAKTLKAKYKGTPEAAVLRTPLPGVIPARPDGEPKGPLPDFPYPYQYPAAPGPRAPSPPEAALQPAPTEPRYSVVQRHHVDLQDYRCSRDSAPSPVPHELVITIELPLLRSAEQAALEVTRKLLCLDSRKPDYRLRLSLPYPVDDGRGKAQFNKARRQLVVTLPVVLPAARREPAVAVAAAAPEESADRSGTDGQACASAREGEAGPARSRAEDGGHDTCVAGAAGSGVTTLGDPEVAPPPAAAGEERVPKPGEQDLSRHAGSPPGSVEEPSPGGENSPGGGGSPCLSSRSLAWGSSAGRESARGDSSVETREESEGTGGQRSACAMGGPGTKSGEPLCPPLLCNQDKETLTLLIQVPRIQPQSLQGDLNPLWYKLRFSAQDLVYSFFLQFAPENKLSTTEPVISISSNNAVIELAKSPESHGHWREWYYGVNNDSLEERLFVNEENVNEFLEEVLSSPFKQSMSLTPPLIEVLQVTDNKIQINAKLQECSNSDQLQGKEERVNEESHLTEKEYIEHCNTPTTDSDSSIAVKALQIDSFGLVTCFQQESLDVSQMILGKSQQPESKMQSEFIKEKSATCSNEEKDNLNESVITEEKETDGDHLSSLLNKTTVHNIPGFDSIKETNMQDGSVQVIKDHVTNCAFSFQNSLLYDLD
UniProt Q8IWF6: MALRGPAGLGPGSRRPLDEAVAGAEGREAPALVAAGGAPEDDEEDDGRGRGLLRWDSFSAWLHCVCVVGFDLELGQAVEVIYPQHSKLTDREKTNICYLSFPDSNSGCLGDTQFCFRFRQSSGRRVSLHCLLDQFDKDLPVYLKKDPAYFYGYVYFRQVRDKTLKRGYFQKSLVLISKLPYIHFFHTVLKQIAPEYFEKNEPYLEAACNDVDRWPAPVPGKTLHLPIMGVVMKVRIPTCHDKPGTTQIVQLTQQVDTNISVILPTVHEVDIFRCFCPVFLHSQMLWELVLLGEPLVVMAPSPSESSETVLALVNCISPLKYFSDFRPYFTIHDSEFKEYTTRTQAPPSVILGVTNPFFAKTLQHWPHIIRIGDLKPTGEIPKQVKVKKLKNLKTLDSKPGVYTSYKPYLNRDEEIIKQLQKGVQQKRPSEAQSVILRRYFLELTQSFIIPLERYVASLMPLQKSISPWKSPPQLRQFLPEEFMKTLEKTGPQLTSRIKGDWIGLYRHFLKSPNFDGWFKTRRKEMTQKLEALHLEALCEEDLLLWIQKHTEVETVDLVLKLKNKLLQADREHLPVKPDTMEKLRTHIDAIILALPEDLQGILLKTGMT
UniProt Q12959, whole entry, looked up: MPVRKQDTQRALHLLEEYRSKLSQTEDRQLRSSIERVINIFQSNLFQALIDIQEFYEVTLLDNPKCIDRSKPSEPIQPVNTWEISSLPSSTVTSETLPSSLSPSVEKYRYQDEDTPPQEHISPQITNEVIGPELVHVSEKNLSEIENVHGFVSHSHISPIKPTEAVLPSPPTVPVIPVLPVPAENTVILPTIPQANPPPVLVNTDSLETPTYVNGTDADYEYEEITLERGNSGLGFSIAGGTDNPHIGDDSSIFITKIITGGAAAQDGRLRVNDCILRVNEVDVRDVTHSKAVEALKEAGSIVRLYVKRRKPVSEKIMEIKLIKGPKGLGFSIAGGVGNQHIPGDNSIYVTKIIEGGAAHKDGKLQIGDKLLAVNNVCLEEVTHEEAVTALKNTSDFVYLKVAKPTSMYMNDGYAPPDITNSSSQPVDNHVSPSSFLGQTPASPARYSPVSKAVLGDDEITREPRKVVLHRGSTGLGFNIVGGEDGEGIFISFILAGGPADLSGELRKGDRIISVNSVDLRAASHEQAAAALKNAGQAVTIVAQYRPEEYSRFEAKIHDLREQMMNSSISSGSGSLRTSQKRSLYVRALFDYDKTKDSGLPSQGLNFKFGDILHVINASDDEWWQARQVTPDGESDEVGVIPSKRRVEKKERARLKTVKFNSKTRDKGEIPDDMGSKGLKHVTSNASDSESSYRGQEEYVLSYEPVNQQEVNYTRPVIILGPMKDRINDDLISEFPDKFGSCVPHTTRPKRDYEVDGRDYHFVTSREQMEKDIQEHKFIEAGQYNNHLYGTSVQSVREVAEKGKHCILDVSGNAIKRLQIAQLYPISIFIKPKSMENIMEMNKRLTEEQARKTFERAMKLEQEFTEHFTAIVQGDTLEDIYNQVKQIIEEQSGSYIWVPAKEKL
UniProt Q14689: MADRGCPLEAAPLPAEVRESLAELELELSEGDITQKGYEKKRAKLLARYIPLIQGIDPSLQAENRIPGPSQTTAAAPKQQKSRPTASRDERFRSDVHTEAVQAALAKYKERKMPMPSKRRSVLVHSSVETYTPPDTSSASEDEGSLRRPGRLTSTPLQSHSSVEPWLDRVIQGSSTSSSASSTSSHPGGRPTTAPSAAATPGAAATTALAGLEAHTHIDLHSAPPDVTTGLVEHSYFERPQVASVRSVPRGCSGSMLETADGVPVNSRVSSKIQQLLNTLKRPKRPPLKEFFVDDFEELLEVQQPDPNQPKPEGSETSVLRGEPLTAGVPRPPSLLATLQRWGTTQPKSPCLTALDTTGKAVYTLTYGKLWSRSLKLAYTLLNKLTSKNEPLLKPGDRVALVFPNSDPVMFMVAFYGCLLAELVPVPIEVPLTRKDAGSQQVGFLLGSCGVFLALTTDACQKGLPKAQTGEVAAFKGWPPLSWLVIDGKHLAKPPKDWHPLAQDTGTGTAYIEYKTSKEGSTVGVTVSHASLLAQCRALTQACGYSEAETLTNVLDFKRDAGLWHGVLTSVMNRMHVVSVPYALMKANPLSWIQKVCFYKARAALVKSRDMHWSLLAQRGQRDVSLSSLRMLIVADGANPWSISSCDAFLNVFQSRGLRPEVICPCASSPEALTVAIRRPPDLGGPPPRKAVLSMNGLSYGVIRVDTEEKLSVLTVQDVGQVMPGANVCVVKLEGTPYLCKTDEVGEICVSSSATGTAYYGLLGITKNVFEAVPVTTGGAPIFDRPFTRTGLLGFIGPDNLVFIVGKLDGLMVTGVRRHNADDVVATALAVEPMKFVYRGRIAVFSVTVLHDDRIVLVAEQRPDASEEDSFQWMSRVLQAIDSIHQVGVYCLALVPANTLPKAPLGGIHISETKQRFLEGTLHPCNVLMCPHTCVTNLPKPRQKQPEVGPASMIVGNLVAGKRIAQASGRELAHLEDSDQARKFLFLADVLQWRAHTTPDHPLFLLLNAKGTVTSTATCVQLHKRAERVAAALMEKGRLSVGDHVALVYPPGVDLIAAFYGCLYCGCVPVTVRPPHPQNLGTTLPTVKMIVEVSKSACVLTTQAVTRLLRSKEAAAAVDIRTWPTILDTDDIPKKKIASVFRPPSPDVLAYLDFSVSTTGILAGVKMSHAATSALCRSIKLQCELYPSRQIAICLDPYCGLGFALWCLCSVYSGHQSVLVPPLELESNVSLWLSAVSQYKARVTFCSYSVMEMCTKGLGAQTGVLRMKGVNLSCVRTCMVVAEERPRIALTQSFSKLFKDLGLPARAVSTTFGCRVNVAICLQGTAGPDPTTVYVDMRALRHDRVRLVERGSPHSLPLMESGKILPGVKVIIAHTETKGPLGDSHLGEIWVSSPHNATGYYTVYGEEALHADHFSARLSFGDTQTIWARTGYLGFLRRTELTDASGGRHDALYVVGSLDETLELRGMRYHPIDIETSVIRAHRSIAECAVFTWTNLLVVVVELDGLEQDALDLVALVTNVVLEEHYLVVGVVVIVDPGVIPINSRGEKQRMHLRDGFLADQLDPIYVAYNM
UniProt Q9NQI0, whole entry, looked up: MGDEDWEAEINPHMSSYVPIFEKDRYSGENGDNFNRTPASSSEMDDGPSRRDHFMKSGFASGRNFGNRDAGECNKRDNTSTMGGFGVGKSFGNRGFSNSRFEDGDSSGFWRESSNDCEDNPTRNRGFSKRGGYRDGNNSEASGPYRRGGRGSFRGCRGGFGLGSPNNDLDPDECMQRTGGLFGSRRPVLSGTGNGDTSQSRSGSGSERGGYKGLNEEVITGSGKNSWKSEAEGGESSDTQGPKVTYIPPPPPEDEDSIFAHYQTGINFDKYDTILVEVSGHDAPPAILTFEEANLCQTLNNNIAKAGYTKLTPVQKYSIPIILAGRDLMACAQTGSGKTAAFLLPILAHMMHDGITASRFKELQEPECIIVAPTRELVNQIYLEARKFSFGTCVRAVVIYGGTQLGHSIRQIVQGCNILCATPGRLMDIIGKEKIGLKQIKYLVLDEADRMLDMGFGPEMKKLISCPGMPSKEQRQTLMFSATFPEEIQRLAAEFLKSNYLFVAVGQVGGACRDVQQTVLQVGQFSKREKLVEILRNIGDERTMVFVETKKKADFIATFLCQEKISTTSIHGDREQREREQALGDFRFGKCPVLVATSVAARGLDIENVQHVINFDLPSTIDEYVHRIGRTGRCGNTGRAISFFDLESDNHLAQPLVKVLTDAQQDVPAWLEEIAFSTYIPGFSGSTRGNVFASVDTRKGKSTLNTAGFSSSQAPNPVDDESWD
UniProt P39656: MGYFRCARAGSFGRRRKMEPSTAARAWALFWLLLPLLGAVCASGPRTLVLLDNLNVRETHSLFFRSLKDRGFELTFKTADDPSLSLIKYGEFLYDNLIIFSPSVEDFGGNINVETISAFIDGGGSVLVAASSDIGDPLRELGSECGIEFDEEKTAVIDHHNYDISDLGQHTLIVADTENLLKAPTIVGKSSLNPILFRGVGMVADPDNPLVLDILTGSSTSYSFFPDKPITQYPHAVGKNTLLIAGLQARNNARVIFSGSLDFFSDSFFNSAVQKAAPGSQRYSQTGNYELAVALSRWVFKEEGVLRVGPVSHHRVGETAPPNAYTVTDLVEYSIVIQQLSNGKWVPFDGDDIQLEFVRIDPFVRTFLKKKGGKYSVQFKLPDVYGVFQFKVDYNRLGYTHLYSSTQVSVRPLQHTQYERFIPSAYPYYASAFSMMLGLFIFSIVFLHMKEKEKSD
UniProt Q6P3S1: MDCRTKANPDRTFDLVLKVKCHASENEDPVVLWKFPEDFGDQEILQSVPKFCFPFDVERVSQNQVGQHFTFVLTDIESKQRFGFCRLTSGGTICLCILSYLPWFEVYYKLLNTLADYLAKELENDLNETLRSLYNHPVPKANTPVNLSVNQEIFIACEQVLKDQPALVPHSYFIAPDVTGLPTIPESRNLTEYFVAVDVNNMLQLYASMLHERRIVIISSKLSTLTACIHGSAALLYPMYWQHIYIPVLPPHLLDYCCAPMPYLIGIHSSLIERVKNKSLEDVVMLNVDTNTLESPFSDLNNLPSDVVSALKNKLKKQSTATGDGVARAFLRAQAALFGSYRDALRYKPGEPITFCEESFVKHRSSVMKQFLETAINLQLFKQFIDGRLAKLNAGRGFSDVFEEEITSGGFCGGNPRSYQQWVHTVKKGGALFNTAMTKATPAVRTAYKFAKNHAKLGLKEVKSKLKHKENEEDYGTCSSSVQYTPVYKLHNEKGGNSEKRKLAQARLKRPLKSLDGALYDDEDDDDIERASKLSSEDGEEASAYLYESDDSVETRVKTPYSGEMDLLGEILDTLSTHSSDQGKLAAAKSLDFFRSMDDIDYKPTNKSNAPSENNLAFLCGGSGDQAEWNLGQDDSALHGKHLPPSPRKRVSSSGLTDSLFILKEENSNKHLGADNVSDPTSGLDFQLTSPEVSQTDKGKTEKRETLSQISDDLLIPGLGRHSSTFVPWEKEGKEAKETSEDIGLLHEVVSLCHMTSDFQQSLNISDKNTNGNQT

Legend:
Test in all cases: log2 fold change, soluble protein after heating vs DMSO (PISA); higher = thermal stabilisation; K562 cells, 10 uM, 30 min; active = over 0.2 and 3.5 SD of the protein, either way, in both replicates (recomputed)
IRAK-1-4 Inhibitor I = compound: C1COCCN1CCN2C3=CC=CC=C3N=C2NC(=O)C4=CC(=CC=C4)[N+](=O)[O-] [IRAK-1-4 Inhibitor I]
Procedure, shortened: (§1)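 Soluble protein was quantified by TMTpro 16plex LC-MS/MS after channel sums were equalised. It was obtained as the supernatant after 21,000xg for 90 min from pooled aliquots of K562 cells (2×10^6 cells/mL, 10 μM compound, 30 min) heated for 3 min across 48°C-58°C and extracted in PBS with 0.5% NP-40 at 4°C. Thermal stability values are relative to control samples and come from duplicates. They are given as log2 fold changes.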

ibrutinib = compound: C=CC(=O)N1CCC[C@@H](n2nc(-c3ccc(Oc4ccccc4)cc3)c3c(N)ncnc32)C1 [ibrutinib]
Procedure, shortened: as §1

[1] = compound: CC(=O)c1cnc2ccc(-c3cc(Cl)c(O)c(Cl)c3)nc2c1N[C@H]1CC[C@H](CN(C)C)CC1
Procedure, shortened: as §1

ralimetinib = compound: CC(C)(C)Cn1c(N)nc2ccc(-c3[nH]c(C(C)(C)C)nc3-c3ccc(F)cc3)nc21 [ralimetinib]
Procedure, shortened: as §1

[2] = compound: CC(C)(O)CC(=O)NCCn1ccc2ncnc(Nc3ccc(Oc4cccc(C(F)(F)F)c4)c(Cl)c3)c21
Procedure, shortened: as §1

[3] = compound: CC(C)C1=C2N=C(C=C(N2N=C1)NCC3=CC=CC=C3)NCCCCCCN
Procedure, shortened: as §1

[4] = compound: CC(C)C[C@@H](C=O)NC(=O)[C@H](CC(C)C)NC(=O)[C@H](CC(C)C)NC(=O)OCc1ccccc1
Procedure, shortened: as §1

pinometostat = compound: CC(C)N(C[C@H]1O[C@@H](n2cnc3c(N)ncnc32)[C@H](O)[C@@H]1O)[C@H]1C[C@@H](CCc2nc3cc(C(C)(C)C)ccc3[nH]2)C1 [pinometostat]
Procedure, shortened: as §1

[5] = compound: CC1=C(C(CC(=O)N1)C2=CC=C(C=C2)C(F)(F)F)C(=O)NC3=C(C=C4C(=C3)C=NN4)F
Procedure, shortened: as §1

[6] = compound: CC1=C(C2=C(C=C1)C(=O)C3=CC=CC=C3N2CCCN)C
Procedure, shortened: as §1

Row | Target | log2 fold change (IRAK-1-4 Inhibitor I) | log2 fold change (ibrutinib) | log2 fold change [1] | log2 fold change (ralimetinib) | log2 fold change [2] | log2 fold change [3] | log2 fold change [4] | log2 fold change (pinometostat) | log2 fold change [5] | log2 fold change [6]
1 | DMTN (UniProt Q08495) | inactive: 0.009 | inactive: 0.008 | inactive: -0.025 | inactive: 0.02 | inactive: -0.029 | inactive: 0.062 | inactive: 0.009 | inactive: 0.015 | inactive: 0.034 | inactive: 0.01
2 | DHRS4L1 (UniProt P0CG22) | inactive: 0.022 | inactive: -0.01 | inactive: -0.037 | inactive: -0.01 | inactive: -0.004 | inactive: 0.008 | inactive: 0.03 | inactive: -0.027 | inactive: 0.057 | inactive: 0.017
3 | DMAC1 (UniProt Q96GE9) | inactive: 0.018 | inactive: 0.048 | inactive: 0.034 | inactive: -0.011 | inactive: 0.072 | inactive: 0.019 | inactive: 0.067 | inactive: -0.002 | – | inactive: -0.013
4 | DNAAF2 (UniProt Q9NVR5) | inactive: -0.02 | inactive: -0.023 | inactive: 0.014 | inactive: 0.022 | inactive: 0.013 | inactive: -0.025 | inactive: -0.054 | inactive: -0.023 | – | inactive: -0.013
5 | DDX56 (UniProt Q9NY93) | inactive: -0.093 | inactive: -0.099 | inactive: 0.113 | inactive: 0.131 | inactive: -0.102 | inactive: -0.01 | inactive: 0.116 | inactive: 0.22 | inactive: 0.044 | inactive: -0.181
6 | DNAJA2 (UniProt O60884) | inactive: -0.001 | inactive: 0.014 | inactive: -0.042 | inactive: -0.051 | inactive: -0.001 | inactive: -0.022 | inactive: -0.024 | inactive: -0.064 | inactive: 0.014 | inactive: 0.097
7 | DHX36 (UniProt Q9H2U1) | inactive: -0.053 | inactive: 0.014 | inactive: 0.001 | inactive: 0.111 | inactive: 0.009 | inactive: -0.025 | inactive: 0.056 | inactive: 0.153 | – | inactive: -0.206
8 | DIAPH1 (UniProt O60610) | inactive: -0.128 | inactive: -0.061 | inactive: 0.072 | inactive: 0.168 | inactive: 0 | active: -0.373 | inactive: 0.07 | inactive: 0.213 | – | inactive: -0.08
9 | DIP2B (UniProt Q9P265) | inactive: 0.033 | inactive: 0.023 | inactive: -0.052 | inactive: -0.042 | inactive: 0 | inactive: 0.067 | inactive: -0.036 | inactive: 0.016 | inactive: -0.018 | inactive: 0.076
10 | DDX1 (UniProt Q92499) | inactive: -0.105 | inactive: -0.05 | inactive: 0.08 | inactive: 0.107 | inactive: 0 | inactive: -0.036 | inactive: 0.148 | inactive: 0.195 | inactive: -0.064 | inactive: -0.022
11 | DENND6A (UniProt Q8IWF6) | inactive: 0 | inactive: 0.128 | inactive: -0.105 | inactive: 0.018 | inactive: -0.064 | inactive: -0.127 | inactive: 0.191 | inactive: -0.011 | inactive: -0.018 | inactive: 0.122
12 | DLG1 isoform 2 (UniProt Q12959) | inactive: 0.009 | inactive: 0.062 | inactive: -0.156 | inactive: 0.012 | inactive: -0.078 | inactive: -0.026 | inactive: -0.006 | inactive: 0.019 | inactive: -0.018 | inactive: 0.03
13 | DIP2A (UniProt Q14689) | inactive: -0.036 | inactive: 0.053 | inactive: -0.06 | inactive: 0.102 | inactive: 0.003 | inactive: -0.023 | inactive: 0.118 | inactive: 0.064 | – | inactive: 0.018
14 | DDB1 (UniProt Q16531) | inactive: 0.038 | inactive: 0.026 | inactive: 0.002 | inactive: -0.053 | inactive: -0.008 | inactive: 0.071 | inactive: -0.017 | inactive: -0.03 | – | inactive: -0.001
15 | DDX23 (UniProt Q9BUQ8) | inactive: -0.026 | inactive: -0.087 | inactive: 0.071 | inactive: 0.074 | inactive: 0.182 | inactive: 0.219 | inactive: 0.122 | inactive: 0.22 | inactive: 0.007 | inactive: 0.106
16 | DGUOK (UniProt Q16854) | inactive: 0.045 | inactive: -0.002 | inactive: -0.069 | inactive: -0.068 | inactive: -0.008 | inactive: 0.025 | inactive: -0.067 | inactive: -0.02 | inactive: -0.061 | inactive: 0.026
17 | DHRS1 (UniProt Q96LJ7) | inactive: 0.037 | inactive: 0.105 | inactive: 0.045 | inactive: 0.014 | inactive: 0 | inactive: 0.614 | inactive: 0.21 | inactive: -0.087 | – | inactive: 0.071
18 | DDRGK1 (UniProt Q96HY6) | inactive: -0.011 | inactive: 0.026 | inactive: -0.003 | inactive: 0.033 | inactive: -0.033 | inactive: 0.017 | inactive: 0.078 | inactive: 0.005 | inactive: 0.021 | inactive: 0.083
19 | DDX11 (UniProt Q96FC9) | inactive: 0.152 | inactive: 0.001 | inactive: -0.119 | inactive: -0.033 | inactive: -0.003 | inactive: 0.022 | inactive: 0.09 | inactive: -0.316 | – | inactive: 0.023
20 | DDX4 (UniProt Q9NQI0) | inactive: -0.033 | inactive: -0.046 | inactive: -0.035 | inactive: -0.063 | inactive: 0.203 | inactive: 0.02 | inactive: 0.239 | inactive: 0.24 | – | inactive: 0.033
21 | DDX42 (UniProt Q86XP3) | inactive: -0.187 | inactive: -0.03 | inactive: -0.513 | inactive: 0.012 | inactive: -0.462 | inactive: -0.068 | inactive: 0.104 | inactive: 0.254 | – | inactive: 0.089
22 | DDX47 (UniProt Q9H0S4) | inactive: -0.01 | inactive: -0.018 | inactive: 0.305 | inactive: 0.224 | inactive: 0.036 | – | inactive: 0.15 | inactive: 0.1 | inactive: -0.168 | –
23 | DDOST (UniProt P39656) | inactive: -0.038 | inactive: -0.027 | inactive: 0.057 | inactive: 0.156 | inactive: 0.015 | inactive: -0.081 | inactive: -0.036 | inactive: 0.015 | – | inactive: -0.041
24 | DENND1A isoform 6 (UniProt Q8TEH3) | inactive: 0.121 | inactive: -0.003 | – | – | – | – | – | inactive: -0.356 | – | inactive: 0.113
25 | DENND1B (UniProt Q6P3S1) | inactive: 0.091 | inactive: 0.071 | inactive: 0 | – | inactive: 0.153 | – | – | inactive: -0.023 | inactive: 0.231 | –
26 | DFFB (UniProt O76075) | inactive: -0.002 | inactive: -0.047 | inactive: 0.011 | inactive: 0.005 | inactive: -0.148 | inactive: 0.066 | inactive: 0.045 | inactive: 0.008 | – | inactive: 0.009
27 | DHTKD1 (UniProt Q96HY7) | inactive: -0.147 | inactive: -0.072 | – | – | inactive: -0.14 | inactive: 0.099 | – | inactive: -0.029 | – | inactive: -0.062
28 | DHCR24 (UniProt Q15392) | inactive: -0.036 | inactive: 0.02 | inactive: 0.157 | inactive: 0.04 | inactive: 0.041 | active: 1.14 | inactive: 0.022 | inactive: 0.05 | – | inactive: 0.212
29 | DHRS3 (UniProt O75911) | inactive: 0 | inactive: 0.027 | inactive: -0.083 | inactive: 0.001 | inactive: 0.143 | inactive: 0.018 | inactive: -0.017 | inactive: -0.056 | – | inactive: 0.03
30 | DNAH11 (UniProt Q96DT5) | inactive: 0.038 | inactive: 0.103 | inactive: 0.126 | inactive: -0.285 | inactive: 0.047 | inactive: -0.001 | inactive: 0.041 | inactive: -0.019 | – | inactive: -0.137

Whole records as entered above. Values in the order: log2 fold change (IRAK-1-4 Inhibitor I) | log2 fold change (ibrutinib) | log2 fold change [1] | log2 fold change (ralimetinib) | log2 fold change [2] | log2 fold change [3] | log2 fold change [4] | log2 fold change (pinometostat) | log2 fold change [5] | log2 fold change [6]
DMAC1 (UniProt Q96GE9) reads inactive: 0.018 | inactive: 0.048 | inactive: 0.034 | inactive: -0.011 | inactive: 0.072 | inactive: 0.019 | inactive: 0.067 | inactive: -0.002 | – | inactive: -0.013
DHCR24 (UniProt Q15392) reads inactive: -0.036 | inactive: 0.02 | inactive: 0.157 | inactive: 0.04 | inactive: 0.041 | active: 1.14 | inactive: 0.022 | inactive: 0.05 | – | inactive: 0.212
